Here are results for one compound from US6696407B1, “Huntington's disease treatment comprising administering aldose reductase inhibitors to increase striatal CNTF” (The Regents of the University of California, priority 1997, dated 2004).

Marks after values point to notes of the source that are not given here.

A short description of the data set: Body weight after two months of diet and ARI treatment. Format: in vivo, rat. Particulars: Ponalrestat 50 mg/kg daily oral gavage, mean ± SD.

As for `O=C(O)Cc1nn(Cc2ccc(Br)cc2F)c(=O)c2ccccc12` [Ponalrestat, 3-(4-bromo-2-fluorobenzyl)-4-oxo-3H-phthalazin-1-ylacetic acid], the Body wt. runs as follows: (40% D-galactose diet rats) 291 ± 14^b g; (control diet rats) 289 ± 19^b g.
